Test results as given in article PMC6581859.

Legend:
Assay in all cases: affinity purification with mass spectrometry; GFP-pulldown from fungal cell extracts of A. nidulans or A. fumigatus strains, LC-MS, MaxQuant LFQ and Perseus filtering against a GFP control
[1] = biological target: T1, GFP-CandA-N (A. nidulans) (UniProt C8VP82)
T1 sequence: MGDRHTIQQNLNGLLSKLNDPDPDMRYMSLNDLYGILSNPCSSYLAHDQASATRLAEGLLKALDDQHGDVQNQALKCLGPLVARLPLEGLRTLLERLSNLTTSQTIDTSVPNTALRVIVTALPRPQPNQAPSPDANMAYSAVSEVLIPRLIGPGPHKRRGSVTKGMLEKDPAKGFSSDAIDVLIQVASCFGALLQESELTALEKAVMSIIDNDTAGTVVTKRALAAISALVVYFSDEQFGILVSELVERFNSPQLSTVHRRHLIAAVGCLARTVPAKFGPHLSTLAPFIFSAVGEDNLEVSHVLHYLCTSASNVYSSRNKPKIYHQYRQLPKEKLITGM

[2] = biological target: T2, CandA-C-GFP (A. nidulans) (UniProt Q5BAH2)
T2 sequence: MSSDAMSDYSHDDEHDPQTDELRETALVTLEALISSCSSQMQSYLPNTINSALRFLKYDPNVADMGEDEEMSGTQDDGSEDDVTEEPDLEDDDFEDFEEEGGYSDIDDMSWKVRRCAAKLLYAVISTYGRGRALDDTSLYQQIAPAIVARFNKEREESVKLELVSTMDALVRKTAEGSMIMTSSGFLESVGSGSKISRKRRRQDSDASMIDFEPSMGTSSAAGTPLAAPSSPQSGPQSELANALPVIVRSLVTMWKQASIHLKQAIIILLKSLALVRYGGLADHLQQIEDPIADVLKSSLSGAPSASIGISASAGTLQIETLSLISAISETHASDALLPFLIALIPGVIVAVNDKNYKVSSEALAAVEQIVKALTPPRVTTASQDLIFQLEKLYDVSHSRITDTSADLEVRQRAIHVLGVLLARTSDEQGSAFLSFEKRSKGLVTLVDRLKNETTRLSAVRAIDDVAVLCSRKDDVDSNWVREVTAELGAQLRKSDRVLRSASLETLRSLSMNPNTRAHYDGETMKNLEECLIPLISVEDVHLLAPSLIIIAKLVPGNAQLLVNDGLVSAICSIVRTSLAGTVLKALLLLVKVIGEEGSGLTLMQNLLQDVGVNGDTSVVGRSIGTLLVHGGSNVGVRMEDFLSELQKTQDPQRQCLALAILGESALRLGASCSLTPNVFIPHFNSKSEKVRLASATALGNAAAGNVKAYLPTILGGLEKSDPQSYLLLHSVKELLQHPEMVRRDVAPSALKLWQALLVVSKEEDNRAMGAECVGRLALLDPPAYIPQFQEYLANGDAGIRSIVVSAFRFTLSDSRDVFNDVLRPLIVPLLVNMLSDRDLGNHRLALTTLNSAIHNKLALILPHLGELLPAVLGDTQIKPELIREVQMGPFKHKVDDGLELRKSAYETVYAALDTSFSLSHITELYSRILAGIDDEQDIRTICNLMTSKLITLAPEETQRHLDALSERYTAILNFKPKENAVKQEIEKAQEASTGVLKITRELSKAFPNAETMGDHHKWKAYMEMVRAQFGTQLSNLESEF

[3] = biological target: CandA-C1-GFP (A. nidulans)

binding [1]: binds | binding [2]: binds
Molecule: CulA (A. nidulans)

binding [1]: no binding | binding [2]: no binding
Molecule: CulC (A. nidulans)

binding [1]: no binding | binding [2]: no binding
Molecule: CulD (A. nidulans)

binding [3]: binds | binding [2]: binds
B1: CandA-N (protein, UniProt C8VP82 1-339)
chain: T1 sequence

binding [1]: binds | binding [3]: binds
B2: CandA-C (protein, UniProt Q5BAH2 1-1041)
chain: T2 sequence

Results are given in words; binding and its absence hold for the method and conditions named. Binding seen in cells or lysates may run through a third protein. A yes stands for co-enrichment or nearness to the bait. Other partners may have been found. For some of these results: No binding means not detected with the bait. For some of these results: Tags and fused reporters may be left off the sequences shown. One block for each molecule: values may come before it.
